## Percent effect of library compounds

Measurements from “University of Dundee, Small-Polar-MMV Screening Library” (2021), ChEMBL document CHEMBL3988442.

The filed quantity is “Percent Effect” (%).
The controls that fix the scale are not given in the record; negative values are as filed.
Compounds were drawn at random from those tested, without regard to their results.
Two or more numbers in one place are separate tests of the same structure; such repeats can differ widely.

A: 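Growth of Mycobacterium tuberculosis over 3 days (7H9 medium with glucose and tyloxapol); the read-out is not stated. Tested at 50 µM. The record gives no direction; compounds that gave an IC50 in retests scored well above the rest, so higher reads as more growth inhibition. Size under these conditions: about 69,000 compounds, about 760 of them at 50% or above in at least one test.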
B: 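Growth of Mycobacterium tuberculosis over 4 days (cholesterol / DPPC medium with tyloxapol); the read-out is not stated. Tested at 50 µM. The record gives no direction; compounds that gave an IC50 in retests scored well above the rest, so higher reads as more growth inhibition. Of about 69,000 compounds tested this way, about 370 (0.54%) reached 50% or more in at least one test.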

compound: O=C(c1ccc2[nH]c(=O)[nH]c2c1)N1CCC(Nc2cccnn2)CC1
A: 10.98
B: -9.301

compound: Cc1cccc(CS(=O)(=O)NCc2nn(C)c3c2COCC3)c1
A: -11.98 & 1.102
B: 1.638

compound: O=C(O)C(F)(F)F.[H][C@]12CCN(Cc3csc(C)n3)[C@@]1([H])C[C@H](C(=O)N1CCOCC1)O2
A: -12.78
B: 1.017 & -1.496

compound: Cc1cnn(C2CCCN(C(=O)CCc3cscn3)C2)c1 (stereo unspecified)
A: -16.01 & -1.677
B: -5.726

compound: Cc1cnn(CC2CCCN2C(=O)CCc2c(C)noc2C)c1 (stereo unspecified)
A: 21.2
B: -18.15

compound: CNC(=O)C(c1cccc(Cl)c1)C(C)C (stereo unspecified)
A: -14.17 & -4.294
B: -17.12

compound: COCC(=O)N1CCO[C@]2(CCC[C@H]2COC)C1
A: -11.48
B: -31.02

compound: CCc1ccccc1OCC(=O)Nc1ccnc(OCCN(C)C)c1
A: 17.27 & 17.34
B: -4.268

compound: CN(C)C(=O)Cc1nc(CN2CCCCC2Cn2cccn2)cs1 (stereo unspecified)
A: -66.88 & -10.03
B: -12.11

compound: O=C(O)C(F)(F)F.c1nc2c(c(-c3ccsc3)n1)CCN(Cc1ccoc1)CC2
A: -28.49
B: 1.351 & -25.89

compound: COc1cccc(-c2n[nH]cc2CNC2CCN(C3CC3)CC2)c1.Cl
A: -4.313
B: -7.077

compound: Cc1cccc(S(=O)(=O)N2CCCc3c(c(=O)n(C)n3C)C2)c1
A: -8.024 & 23.87
B: 1.364

compound: CS(=O)(=O)N[C@@H]1CN(C(=O)c2cc3ccccc3s2)C[C@H]1O
A: 74.34
B: 46.27

compound: [H][C@@]12C[C@@H](OCc3cccnc3)CN1CCN(C(=O)c1cscn1)C2
A: -58.97
B: -27.53

compound: CC(C)c1nnc2n1CCN(C(=O)c1ccc3c(c1)NC(=O)CO3)C2
A: 12.28
B: 12.65

compound: NC(=O)CN1CCC(C(=O)NCCc2nc(-c3ccccc3)cs2)CC1
A: 3.283
B: 2.262 & 11.52

compound: COc1cc(CNCCc2cc(F)cc3c2OCOC3)cc(OC)c1
A: 29.89
B: 17.57

compound: CNC(=O)C(C)(C)N1CCC[C@H]1C(=O)NCCN1CCOCC1
A: -26.41 & -12.34
B: -6.104

compound: CCOCC(O)CN1CCN(C(=O)CC(C)(C)C)CC1 (stereo unspecified)
A: 9.448
B: 6.015

compound: O=C(N[C@@H]1CCC[C@@H](N2CCOCC2)[C@@H]1O)c1cc2ccccc2[nH]1
A: 4.717
B: -30.7

compound: CC(C)NC(=O)CCNC(=O)Nc1cccc(-c2nccn2C)c1
A: -9.89
B: -13.49

compound: CC(C)[C@@H]1CN(C(=O)NCCc2ccccc2)C[C@H]1NS(=O)(=O)N(C)C
A: 28.7
B: 11.42

compound: c1cc(CCNc2ncnc3c2CCN(Cc2ccoc2)CC3)ccn1
A: -15.64
B: 1.747

compound: COc1ccc(NS(=O)(=O)CC2=NC(=O)n3cccc3C2=O)cc1Cl
A: -4.079
B: -0.8452

compound: COCCCN1CCC(CNc2nccc(-c3cnn(C)c3)n2)C1 (stereo unspecified)
A: 13.74 & 3.498
B: -4.559

compound: O=C(CCN1CCCC1c1cccc2c1OCCO2)N1CCOCC1 (stereo unspecified)
A: 50.18
B: 12.93 & -6.034

compound: CCOC(=O)CCCN1CCCC(C(=O)Nc2ccc(Cl)cn2)C1 (stereo unspecified)
A: 10
B: 13.11

compound: O=C(CCNS(=O)(=O)c1ccccc1F)NCc1ccoc1
A: -42.37
B: -15.06 & -5.546

The first 2 entries again:

compound,A,B
O=C(c1ccc2[nH]c(=O)[nH]c2c1)N1CCC(Nc2cccnn2)CC1,10.98,-9.301
Cc1cccc(CS(=O)(=O)NCc2nn(C)c3c2COCC3)c1,-11.98 & 1.102,1.638